The values that follow are results of earlier work, collected in paper PMC7555276, “Using Ex Vivo Porcine Jejunum to Identify Membrane Transporter Substrates: A Screening Tool for Early—Stage Drug Development” (Biomedicines, 2020).

This data set has as its system OCT1. The settings on record: inhibitor of OCT1; cited from earlier work.

`CN1[C@@H]2CC[C@H]1C[C@@H](OC(=O)C(CO)c1ccccc1)C2` (stereo partly shown) [Atropine]: the IC50 was 1200 nM.

For orientation: IC50 means the concentration at which inhibition is half-maximal.
